# Assay results from PubChem BioAssay AID1487 (National Center for Advancing Translational Sciences (NCATS), 2009).
# Values joined by “and” are separate entries in the source; they are usually repeats but may differ in a detail not shown here. Equal entries are not always repeated. The list shows a part of the results. Shown are side measurements of this screen, not its main read-out; they come without a call. Compounds called inactive in the main read-out are mostly missing here. Potencies come from curve fits of mixed quality, noted in brackets.
# Experiment: qHTS Assay for Modulators of Lamin A Splicing
# Settings: HeLa LMNA splicing GFP/RFP minigene ratio, 48 h
# Method in brief: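 S3 HeLa cells stably expressing lamin A-EGFP splicing minigene plus DsRed2, 600 cells/well, 48 h compound exposure at 37C. Laser-scanning cytometry; analysed as GFP (500-530 nm)/RFP (575-640 nm) total intensity ratio; 0.5% DMSO vehicle.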
# [1] = measured here: GFP splicing reporter channel
# [2] = measured here: RFP viability control channel
SMILES,AC50 [1],AC50 [2]
Cn1c(=O)n(C)c2cc([N+](=O)[O-])c(N3CCNCC3)cc21,"35.5 µM [falling, single point]",
COc1ccccc1-c1nn2c(=O)cc(CN3CCN(C(=O)Nc4ccc(C)cc4Cl)CC3)nc2s1,"1.26 µM [rising, full curve, poor fit]","2.51 µM [rising, full curve, poor fit]"
CC(=O)N1CCN(c2ccc(OC[C@@H]3CO[C@@](Cn4ccnc4)(c4ccc(Cl)cc4Cl)O3)cc2)CC1,"0.0316 µM [falling, full curve]","0.0112 µM [falling, full curve]"
NC(Cc1ccc(N(CCCl)CCCl)cc1)C(=O)O (stereo unspecified),"11.2 µM [falling, partial curve]","15.8 µM [falling, partial curve]"
COc1ccc(C[C@H]2c3cc(OC)c(OC)cc3CCN2C)cc1OC,"0.2 µM [falling, single point]","0.316 µM [falling, single point]"
OC(c1ccccc1)(c1ccccc1)C1CN2CCC1CC2 (stereo unspecified),,"0.355 µM [falling, partial curve]"
CN(C)c1nc(-c2ccccc2)[n+](C)s1,"0.708 µM [rising, single point]","0.158 µM [rising, single point]"
CCN(CC)C1=NC(=[N+](CC)CC)c2ccccc21,,"17.8 µM [falling, partial curve]"
Cc1ccc(Cc2c(C)nc3nc(SCC(=O)N4CCC5(CC4)OCCO5)nn3c2C)cc1,,"35.5 µM [rising, single point]"
Cc1ccc(Cn2cc(C=O)c(-c3ccc(C)cc3)n2)cc1,"25.1 µM [rising, partial curve, poor fit]",
CN(C)C(=O)Oc1cccc([N+](C)(C)C)c1,"44.7 nM [falling, full curve, poor fit] and 3.98 µM [rising, full curve, poor fit] and 20 µM [rising, single point]","5.01 µM [rising, full curve] and 4.47 nM [falling, full curve, poor fit]"
O=C(Oc1cccc2cccnc12)c1ccccc1,"2 µM [falling, partial curve]","3.98 µM [falling, partial curve]"
O=c1[nH]cnc2[nH]ncc12,"0.447 µM [falling, full curve, poor fit]","6.31 µM [falling, partial curve, poor fit]"
CC12CN3C(O)C(C)(C1)CC(C)(C2)C3O (stereo unspecified),"11.2 µM [rising, single point]","11.2 µM [rising, single point]"
Cc1cc(O)c2c(c1)C(=O)c1cc(O)cc(O)c1C2=O,"22.4 µM [falling, partial curve]","0.00562 µM [falling, full curve, poor fit]"
C=CCn1c(O)c(C(C)=NCc2cc(OC)cc(OC)c2)c(=O)[nH]c1=O,,"8.91 µM [rising, partial curve, poor fit]"
COc1cc2c(cc1OC)[C@@H]1C(=O)c3ccc(OC)c(CC=C(C)C)c3OC1CO2 (stereo partly specified),"11.2 µM [falling, partial curve, poor fit]","20 µM [falling, partial curve]"
c1ccc(-c2ccc(-c3n(-c4ccccn4)c4ccccc4[n+]3-c3ccccn3)cc2)cc1,,"11.2 µM [rising, partial curve, poor fit]"
O=C1C=Cc2ccccc2C1=O,"35.5 µM [falling, partial curve, poor fit]","0.0224 µM [falling, full curve]"
CC(N)C(=O)OC(C)(C)Cc1ccc(Cl)cc1 (stereo unspecified),"12.6 µM [falling, partial curve, poor fit]","8.91 µM [falling, partial curve, poor fit]"
Cc1ccc(-n2c(/C=C/c3ccc(Br)s3)nc3ccccc3c2=O)cc1,,"1.41 µM [rising, full curve]"
CCS(=O)(=O)N1N=C(c2cccc(NS(C)(=O)=O)c2)CC1c1ccccc1 (stereo unspecified),"0.794 µM [rising, full curve]","1.26 µM [rising, single point]"
COc1cc(OC)c(OC)cc1/C=C1\C(=O)NC(=O)N(Cc2ccccc2)C1=O,,"0.501 µM [falling, partial curve, poor fit]"
CC[n+]1c(-c2ccccc2)c2cc(N)ccc2c2ccc(N)cc21,"11.2 µM [falling, partial curve]","22.4 µM [falling, single point]"
O=c1c2ccccc2nc(/C=C/c2cccc3ccccc23)n1-c1ccccc1Cl,,"0.0224 µM [rising, full curve, poor fit]"
Fc1ccc2c(c1)nnn2C1CCN(Cc2nnnn2CCc2ccccc2)CC1,"1.78 µM [rising, full curve]",
CNC(=O)OCC[N+](C)(C)C,"0.282 µM [rising, full curve, poor fit]",

SMILES,AC50 [1],AC50 [2]
C[C@]12CC[C@@H]3c4ccc(O)c(O)c4CC[C@H]3[C@@H]1CC[C@@H]2O,"7.08 µM [falling, full curve, poor fit]","8.91 µM [falling, partial curve, poor fit]"
ClC(Cl)(Cl)Cl,"0.1 µM [rising, full curve, poor fit]","0.00141 µM [rising, full curve, poor fit]"
CC(NCC#Cc1ccccc1)C(O)c1ccccc1 (stereo unspecified),,"0.00562 µM [falling, full curve, poor fit]"
CC(=O)Nc1cc(Cl)c(N=Cc2ccc(O)cc2O)cc1Cl,,"12.6 µM [rising, partial curve, poor fit]"
CC(=O)Nc1ccccc1C(=O)OCc1ccccc1F,,"0.00316 µM [falling, full curve, poor fit]"
CC1(C)C(=O)[C@@H]2OC2[C@@]2(C)C1CC(O)[C@]1(C)C2CC[C@@]2(C)C(c3ccoc3)OC(=O)C3OC312 (stereo partly specified),"14.1 µM [rising, single point]",
O=C(CC1CCCCC1)c1c(O)c2ccccc2oc1=O,,"20 µM [rising, single point]"
CC(C)(C)NCC1(CO)SC(N)=NC1=O (stereo unspecified),,"12.6 µM [rising, partial curve]"
CSc1ccc(C(=O)C2CCCN(Cc3cc4ccccc4[nH]3)C2)cc1 (stereo unspecified),"25.1 µM [falling, partial curve]","35.5 µM [falling, partial curve]"
CC(=O)N1N=C2C3CCN(CC3)C2C1c1ccccc1 (stereo unspecified),,"0.0224 µM [falling, full curve]"
CCN1C(=O)c2ccccc2Sc2ccc(NC(=O)Cc3ccc(OC)c(OC)c3)cc21,"1.26 µM [falling, full curve, poor fit]",
CP(=O)(O)CCCN,,"0.141 µM [rising, full curve, poor fit]"
C[C@H]1CN(C2CCC(C#N)(c3ccc(F)cc3)CC2)CC[C@@]1(C(=O)O)c1ccccc1 (stereo partly specified),"1.41 µM [falling, partial curve, poor fit]",
O=c1[nH]c(O)c(N=Nc2cc(C(F)(F)F)ccc2Cl)c(=O)[nH]1,,"28.2 µM [rising, partial curve, poor fit]"
C[C@@]12CCC(O)C[C@H]1CCC1C2CC[C@]2(C)C(=O)CCC12 (stereo partly specified),,"31.6 µM [rising, single point]"
CC(C)NC[C@H](O)COc1cccc2[nH]ccc12,,"0.447 µM [rising, partial curve, poor fit]"
CCOC(=O)C1=C(C)OC(N)=C(C#N)C12C(=O)Nc1ccc(C)cc12 (stereo unspecified),"6.31 µM [falling, single point]","6.31 µM [falling, single point]"
N#Cc1cc2c(nc1SCC(=O)Nc1ccc(OC(F)(F)F)cc1)C1CCN2CC1,,"7.08 µM [falling, partial curve, poor fit]"
C[C@@H]1O[C@H](O[C@H]2C[C@@H](O)[C@@]3(CO)[C@H]4[C@@H](O)C[C@]5(C)[C@@H](C6=CC(=O)OC6)CC[C@]5(O)[C@H]4CC[C@]3(O)C2)[C@@H](O)[C@H](O)[C@@H]1O,"0.141 µM [falling, full curve]","0.141 µM [falling, full curve]"
CC(=O)C1=NOC(CNc2ncc(C(F)(F)F)cc2Cl)C1 (stereo unspecified),"0.0316 µM [rising, full curve]","0.0501 µM [rising, full curve, poor fit]"
CN1CCc2c(C#N)c(Cl)nc(Cl)c2C1,,"14.1 µM [rising, partial curve]"
COC(=O)c1c(C)n(Cc2ccc3c(c2)OCO3)c2ccc(O)cc12,,"14.1 µM [rising, partial curve]"
Cc1cccn2c(=O)c3cc(C(=O)N4CCC5(CC4)OCCO5)n(C)c3nc12,"5.62 µM [falling, full curve, poor fit]","5.01 µM [falling, full curve]"
O=C1CN=C(c2ccc(F)cc2)c2oc3ccccc3c2N1,"0.0141 µM [rising, full curve, poor fit]",
Cc1ccc(Cn2cccc(C(=O)Nc3cc([N+](=O)[O-])ccc3C)c2=O)cc1,"0.0178 µM [falling, full curve, poor fit]",
COc1ccc(C2=C(C(C)=O)Sc3nnc(-c4ccc(Cl)cc4)n3N2C(C)=O)cc1OC,"35.5 µM [falling, single point]","5.62 µM [falling, single point]"

# Reprinted at random: 4 compounds from above, in no set order.
SMILES,AC50 [1],AC50 [2]
CC(=O)C1=NOC(CNc2ncc(C(F)(F)F)cc2Cl)C1 (stereo unspecified),"0.0316 µM [rising, full curve]","0.0501 µM [rising, full curve, poor fit]"
O=C1C=Cc2ccccc2C1=O,"35.5 µM [falling, partial curve, poor fit]","0.0224 µM [falling, full curve]"
O=c1[nH]c(O)c(N=Nc2cc(C(F)(F)F)ccc2Cl)c(=O)[nH]1,,"28.2 µM [rising, partial curve, poor fit]"
COC(=O)c1c(C)n(Cc2ccc3c(c2)OCO3)c2ccc(O)cc12,,"14.1 µM [rising, partial curve]"
